Test results as given in the supplement of paper PMC4604168 (melanoma cell lines).
The other results are listed elsewhere or left out. Repeats are few or missing, and single values can be far off.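 Imaging used 1,536-well plates; nuclei positive for cleaved PARP by antibody were divided by total DNA-stained nuclei to yield the apoptosis fraction. Doses for screening kept most cells viable, and cell lines differ markedly in resting and induced cleaved-PARP levels.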

Test system: A375
Experiment: cleaved PARP positive nuclei fraction relative to DMSO control; melanoma cells; higher = more apoptosis
Details: library dose: low library concentration; 72 h

SMILES	cleaved PARP positive nuclei fraction [%]
Cc1cn(-c2cc(NC(=O)c3ccc(C)c(Nc4nccc(-c5cccnc5)n4)c3)cc(C(F)(F)F)c2)cn1 [nilotinib] + C[As](C)SC[C@H](NC(=O)CC[C@H](N)C(=O)O)C(=O)NCC(=O)O [Darinaparsin] (first compound 0.2 µM, partner dose 0.4 µM)	59.3
Cc1ccc(Nc2nccc(N(C)c3ccc4c(C)n(C)nc4c3)n2)cc1S(N)(=O)=O [Pazopanib] + Cn1cc(C2=C(c3cn(C4CCN(Cc5ccccn5)CC4)c4ccccc34)C(=O)NC2=O)c2ccccc21 [Enzastaurin] (first compound 0.4 µM, partner dose 0.8 µM)	40
C[C@]12O[C@H](C[C@]1(O)CO)n1c3ccccc3c3c4c(c5c6ccccc6n2c5c31)CNC4=O [Lestaurtinib] + OCc1c[nH]c2ccccc12 [Indole-3-carbinol] (first compound 0.004 µM, partner dose 0.8 µM)	79.6
Cn1cc(C2=C(c3cn(C4CCN(Cc5ccccn5)CC4)c4ccccc34)C(=O)NC2=O)c2ccccc21 [Enzastaurin] + C[C@]1(O)C[C@@H](c2nc(-c3ccc4ccc(-c5ccccc5)nc4c3)c3c(N)nccn32)C1 [OSI906] (first compound 0.8 µM, partner dose 0.4 µM)	67.7
O=C(/C=C/c1cccnc1)NCCCCC1CCN(C(=O)c2ccccc2)CC1 + N.N.[Cl][Pt][Cl] [cisplatin] (first compound 0.01 µM, partner dose 1.6 µM)	191
O=C(Nc1cc(C(F)(F)F)cc(C(F)(F)F)c1)c1cc(Cl)ccc1O + Cn1cc(C2=C(c3cn(C4CCN(Cc5ccccn5)CC4)c4ccccc34)C(=O)NC2=O)c2ccccc21 [Enzastaurin] (first compound 0.016 µM, partner dose 0.8 µM)	94
C#Cc1cccc(Nc2ncnc3cc(OCCOC)c(OCCOC)cc23)c1 [erlotinib] + C[As](C)SC[C@H](NC(=O)CC[C@H](N)C(=O)O)C(=O)NCC(=O)O [Darinaparsin] (first compound 0.8 µM, partner dose 0.4 µM)	180
Cn1cnc2c(F)c(Nc3ccc(Br)cc3Cl)c(C(=O)NOCCO)cc21 [selumetinib] + Cn1cc(C2=C(c3cn(C4CCN(Cc5ccccn5)CC4)c4ccccc34)C(=O)NC2=O)c2ccccc21 [Enzastaurin] (first compound 0.015 µM, partner dose 0.8 µM)	240
N.N.[Cl][Pt][Cl] [cisplatin] + C[C@@H](Oc1cc(-c2cnn(C3CCNCC3)c2)cnc1N)c1c(Cl)ccc(F)c1Cl [Crizotinib] (first compound 1.6 µM, partner dose 0.2 µM)	152

Test system: C32
Experiment: as above
Details: library dose: low library concentration; 72 h

SMILES	cleaved PARP positive nuclei fraction [%]
Cn1cc(C2=C(c3cn(C4CCN(Cc5ccccn5)CC4)c4ccccc34)C(=O)NC2=O)c2ccccc21 [Enzastaurin] + O=C(O)[C@@H]1[O][Sb](=[O])([O][Sb]2(=[O])[O][C@H]([C@H](O)CO)[C@H](O)[C@H](C(=O)O)[O]2)[O][C@H]([C@H](O)CO)[C@@H]1O [stibogluconate] (first compound 0.8 µM, partner dose 2 µM)	84.4
C[C@]12O[C@H](C[C@]1(O)CO)n1c3ccccc3c3c4c(c5c6ccccc6n2c5c31)CNC4=O [Lestaurtinib] + CNC(=O)c1cc(Oc2ccc(NC(=O)Nc3ccc(Cl)c(C(F)(F)F)c3)cc2)ccn1 [sorafenib] (first compound 0.004 µM, partner dose 0.4 µM)	165
CC1(C)CCC(c2ccc(Cl)cc2)=C(CN2CCN(c3ccc(C(=O)NS(=O)(=O)c4ccc(N[C@H](CCN5CCOCC5)CSc5ccccc5)c(S(=O)(=O)C(F)(F)F)c4)cc3)CC2)C1 + Cn1cc(C2=C(c3cn(C4CCN(Cc5ccccn5)CC4)c4ccccc34)C(=O)NC2=O)c2ccccc21 [Enzastaurin] (first compound 0.4 µM, partner dose 0.8 µM)	149
Cn1cc(C2=C(c3cn(C4CCN(Cc5ccccn5)CC4)c4ccccc34)C(=O)NC2=O)c2ccccc21 [Enzastaurin] + O=C(O)c1ccc2c(c1)nc(Nc1cccc(Cl)c1)c1ccncc12 [CX4945] (first compound 0.8 µM, partner dose 0.4 µM)	85.1
N.N.[Cl][Pt][Cl] [cisplatin] + CNC(=O)c1cc(Oc2ccc(NC(=O)Nc3ccc(Cl)c(C(F)(F)F)c3)cc2)ccn1 [sorafenib] (first compound 1.6 µM, partner dose 0.4 µM)	73.9
N.N.[Cl][Pt][Cl] [cisplatin] + CS(=O)(=O)CCNCc1ccc(-c2ccc3ncnc(Nc4ccc(OCc5cccc(F)c5)c(Cl)c4)c3c2)o1 [lapatinib] (first compound 1.6 µM, partner dose 0.8 µM)	71.7
C[C@]12O[C@H](C[C@]1(O)CO)n1c3ccccc3c3c4c(c5c6ccccc6n2c5c31)CNC4=O [Lestaurtinib] + Cc1cc(Nc2cc(N3CCN(C)CC3)nc(/C=C/c3ccccc3)n2)n[nH]1 [ENMD2076] (first compound 0.004 µM, partner dose 0.04 µM)	144
C[As](C)SC[C@H](NC(=O)CC[C@H](N)C(=O)O)C(=O)NCC(=O)O [Darinaparsin] + Cn1nnc2c(C(N)=O)ncn2c1=O [temozolomide] (first compound 0.4 µM, partner dose 2 µM)	71
CCCCCCCCCCCCCCCCCCOP(=O)([O-])OC1CC[N+](C)(C)CC1 [Perifosine] + Cn1cc(C2=C(c3cn(C4CCN(Cc5ccccn5)CC4)c4ccccc34)C(=O)NC2=O)c2ccccc21 [Enzastaurin] (first compound 0.4 µM, partner dose 0.8 µM)	67.7
C=CCNC1=C2C[C@@H](C)C[C@H](OC)[C@H](O)[C@@H](C)/C=C(\C)[C@H](OC(N)=O)[C@@H](OC)/C=C\C=C(/C)C(=O)NC(=CC1=O)C2=O [Tanespimycin] + C[As](C)SC[C@H](NC(=O)CC[C@H](N)C(=O)O)C(=O)NCC(=O)O [Darinaparsin] (first compound 0.002 µM, partner dose 0.4 µM)	172
Cn1sc(=O)n(Cc2ccccc2)c1=O + C[As](C)SC[C@H](NC(=O)CC[C@H](N)C(=O)O)C(=O)NCC(=O)O [Darinaparsin] (first compound 0.4 µM, partner dose 0.4 µM)	75.6
CC1(C)CCC(c2ccc(Cl)cc2)=C(CN2CCN(c3ccc(C(=O)NS(=O)(=O)c4ccc(N[C@H](CCN5CCOCC5)CSc5ccccc5)c(S(=O)(=O)C(F)(F)F)c4)cc3)CC2)C1 + C[As](C)SC[C@H](NC(=O)CC[C@H](N)C(=O)O)C(=O)NCC(=O)O [Darinaparsin] (first compound 0.4 µM, partner dose 0.4 µM)	177
Cc1cc(Nc2cc(N3CCN(C)CC3)nc(Sc3ccc(NC(=O)C4CC4)cc3)n2)n[nH]1 [Tozasertib] + C[As](C)SC[C@H](NC(=O)CC[C@H](N)C(=O)O)C(=O)NCC(=O)O [Darinaparsin] (first compound 0.006 µM, partner dose 0.4 µM)	70.4
CS(=O)(=O)c1ccc(C(=O)Nc2ccc(Cl)c(-c3ccccn3)c2)c(Cl)c1 [vismodegib] + N.N.[Cl][Pt][Cl] [cisplatin] (first compound 1 µM, partner dose 1.6 µM)	70.5
Cc1cc(Nc2cc(N3CCN(C)CC3)nc(/C=C/c3ccccc3)n2)n[nH]1 + C[As](C)SC[C@H](NC(=O)CC[C@H](N)C(=O)O)C(=O)NCC(=O)O [Darinaparsin] (first compound 0.04 µM, partner dose 0.4 µM)	79.9
O=C(Nc1cc(C(F)(F)F)cc(C(F)(F)F)c1)c1cc(Cl)ccc1O + C[As](C)SC[C@H](NC(=O)CC[C@H](N)C(=O)O)C(=O)NCC(=O)O [Darinaparsin] (first compound 0.016 µM, partner dose 0.4 µM)	63.4
Cc1cn(-c2cc(NC(=O)c3ccc(C)c(Nc4nccc(-c5cccnc5)n4)c3)cc(C(F)(F)F)c2)cn1 [nilotinib] + C[C@]12O[C@H](C[C@]1(O)CO)n1c3ccccc3c3c4c(c5c6ccccc6n2c5c31)CNC4=O [Lestaurtinib] (first compound 0.2 µM, partner dose 0.004 µM)	73.3
C[As](C)SC[C@H](NC(=O)CC[C@H](N)C(=O)O)C(=O)NCC(=O)O [Darinaparsin] + Cn1c(Nc2ccc(C(F)(F)F)cc2)nc2cc(Oc3ccnc(-c4ncc(C(F)(F)F)[nH]4)c3)ccc21 [CHIR265] (first compound 0.4 µM, partner dose 0.08 µM)	170
Cn1cc(C2=C(c3cn(C4CCN(Cc5ccccn5)CC4)c4ccccc34)C(=O)NC2=O)c2ccccc21 [Enzastaurin] + CN(c1ncccc1CNc1nc(Nc2ccc3c(c2)CC(=O)N3)ncc1C(F)(F)F)S(C)(=O)=O [PF562271] (first compound 0.8 µM, partner dose 0.08 µM)	47
C[C@]12O[C@H](C[C@]1(O)CO)n1c3ccccc3c3c4c(c5c6ccccc6n2c5c31)CNC4=O [Lestaurtinib] + O=C(O)c1ccc2c(c1)nc(Nc1cccc(Cl)c1)c1ccncc12 [CX4945] (first compound 0.004 µM, partner dose 0.4 µM)	76.6

Single entries from the results shown.
cleaved PARP positive nuclei fraction [%], N.N.[Cl][Pt][Cl] [cisplatin] + CS(=O)(=O)CCNCc1ccc(-c2ccc3ncnc(Nc4ccc(OCc5cccc(F)c5)c(Cl)c4)c3c2)o1 [lapatinib] (first compound 1.6 µM, partner dose 0.8 µM) reads 71.7
cleaved PARP positive nuclei fraction [%], N.N.[Cl][Pt][Cl] [cisplatin] + CNC(=O)c1cc(Oc2ccc(NC(=O)Nc3ccc(Cl)c(C(F)(F)F)c3)cc2)ccn1 [sorafenib] (first compound 1.6 µM, partner dose 0.4 µM) reads 73.9
